Reference: PubChem BioAssay AID2417 (National Center for Advancing Translational Sciences (NCATS), 2010)
Screen size: about 140,000 compounds; about 4,300 (3.1%) were called active. This list was built around the results that the source calls inconclusive (neither active nor inactive); the mix of calls is not that of the screen.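 How the source made its calls: active means readout at or below -70, meaning at least 70% loss of cells showing the perinucleolar compartment, a nuclear body marking cancer cells; inconclusive means readout between -30 and a set limit; inactive means the rest.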

Assay: High Content Assay for Compounds that inhibit the Assembly of the Perinucleolar Compartment;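 further: plate controls were DMSO wells for no effect and camptothecin positive control wells for full effect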
Conditions: PC3M PTB-GFP, PNC prevalence imaging, 16 h; at 10 µM; active compounds read low
How it was run: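 Read-out is percentage of cells bearing a perinucleolar compartment, from automated 20x imaging of fixed, Hoechst-stained PC3M PTB-GFP cells. Cells were seeded 4 h, then exposed 16 h to compound (23 nl of library stock) in duplicate plates.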

Compound | activity change (PNC), negative = inhibition
Cc1cc(C(=O)CSc2nc(N)cc(=O)[nH]2)c(C)n1CCc1ccc(F)cc1 | inconclusive: -36.4%
O=C(NCc1ccccn1)c1cc(-c2ccc(Cl)cc2)nc2ccccc12 | inconclusive: -50.7%
CCc1ccc(C(=O)Nc2ccc(S(=O)(=O)Nc3nc(C)cc(C)n3)cc2)o1 | active: -107%
CCn1c(COc2cc(C)cc(C)c2)nnc1SCC(=O)N1CCN(c2ccccc2)CC1 | inconclusive: -42.4%
O=C(CN1C(=O)COc2ccccc21)N(Cc1cccnc1)Cc1ccccc1F | inconclusive: -50.4%
COc1cccc(CN2CC(O)=C(c3nc(-c4ccc(Cl)cc4)cs3)C2=N)c1 | inactive: 0.36%
Cc1nc(N2CCN(c3ccccc3)CC2)nc2c1C(=O)CCC2 | inconclusive: -37.2%
CCOC(=O)N1CCN(C(=O)c2ccc3nc(N4CCCCC4)sc3c2)CC1 | inactive: 54.1%
CC(Oc1ccc(Cl)cc1Cl)c1nc(-c2ccc(NC(=O)c3cccnc3)cc2)no1 (stereo not given) | inconclusive: -36%
S=C(NCCc1ccccc1)NCc1ccccc1Cl | inactive: 29.5%
CSC1=NCCN1C(=O)Cc1ccc(Cl)cc1 | inconclusive: -78.9%
Cc1ccc(-n2[nH]c(C)c(/C=N/NC(=O)c3cccc([N+](=O)[O-])c3)c2=O)cc1C | inactive: 3.84%
Cc1cc(OCC(=O)Nc2ccncc2)ccc1Br | inconclusive: -47.7%
Cc1cccc(NC(=O)c2cc3n(n2)C(C(F)(F)F)CC(C2CC2)N3)c1C (stereo not given) | inconclusive: -41.8%
COc1cc(S(=O)(=O)Nc2cc(C)cc(C)c2)ccc1F | inconclusive: -41.4%
O=C1c2cnc3nc(SCc4ccccc4)nn3c2CC2c3ccccc3CCN12 (stereo not given) | inconclusive: -32.5%
Cc1ccccc1OCCCCCNCCO | inconclusive: -78.9%
CCCCOc1ccc(CN2CCCCC2)cc1 | inconclusive: -35.5%
Cc1ccc(C(=O)OCC(=O)Nc2ccc3c(c2)OCO3)o1 | active: -100%
O=c1onc(-c2ccc(Cl)cc2)n1Cc1ccc(F)cc1 | inactive: 44.2%
N#Cc1cn(-c2ccccc2)nc1-c1cc2ccccc2oc1=O | inconclusive: -47.2%
Cc1noc(C)c1S(=O)(=O)N1CCC(C(=O)N2CCN(c3ccc(Cl)cc3)CC2)CC1 | inconclusive: -75.8%
COc1ccc(C(=O)NC2CCN(CC(=O)Nc3cccc(C)c3)CC2)cc1OC | inconclusive: -43%

Compound | activity change (PNC), negative = inhibition
S=c1[nH]nc(-c2cc3c(s2)-c2ccccc2CC3)o1 | inconclusive: -32.7%
COc1ccc(-c2noc(-c3cccc(OC)c3OC)n2)cc1OC | inactive: 7.54%
O=C(O)c1cccc(NC(=O)C2C3C=CC(C3)C2C(=O)OCC(F)(F)C(F)F)c1 (stereo not given) | inconclusive: -67%
CCSc1nnc(-c2cnn(-c3ccccc3)c2-n2cccc2)n1C | inconclusive: -60.4%
CCCNC(=O)c1ccccc1NC(=O)c1ccccc1N(C)S(=O)(=O)c1ccc(C)cc1 | inconclusive: -48.2%
COC(=O)Cn1c(=O)sc2ccccc21 | inconclusive: -57.6%
c1ccc(C(c2c[nH]c3ccccc23)c2c[nH]c3ccccc23)nc1 | inactive: 29.8%
O=C(CCSCCC(=O)NCc1cccs1)NCc1cccs1 | inconclusive: -32.9%
O=C(CCC(=O)c1cccs1)OCc1nc2ccccc2s1 | inconclusive: -30.8%
COc1cc(C2C(C#N)=C(N)Oc3n[nH]c(-c4ccccn4)c32)cc(OC)c1OC (stereo not given) | inconclusive: -59%
O=C(Nc1cc(C(=O)N2CCCC2)ccc1N1CCCC1)c1ccccc1 | active: -111%
CCOC(=O)c1ccc(Nc2nc(-c3cccnc3)nc3ccccc23)cc1 | inactive: 88%
CCC(Cc1ccccc1)NC(=O)C1CCC(CNc2c(N3CCCC3)c(=O)c2=O)CC1 (stereo not given) | inactive: -29.9%
O=c1[nH]c2ccc(Br)cc2c(-c2ccccc2)c1CN1CCOCC1 | active: -90.2%
O=C(Nc1nc2ccccc2s1)C1=NN(c2ccccc2)C(=O)CC1 | inconclusive: -35.8%
Cc1oc2cc(O)cc(C)c2c(=O)c1-c1cnn(-c2ccccc2)c1 | active: -115%
COCc1nnc(NC(=O)c2cc(Cl)ccc2OC)s1 | inactive: 34.8%
O=C(Cn1nc(C(F)(F)F)c2c1CCCCC2)N1CCOCC1 | inconclusive: -33.2%
CC(C)Cc1nnc(NC(=O)c2ccc([N+](=O)[O-])cc2)s1 | inconclusive: -33.3%
Cc1nnc(SCc2ccccc2F)n1NCc1cccs1 | inconclusive: -37.4%
Cc1cc(NC(=O)c2ccccc2F)n(-c2nc3ccccc3[nH]2)n1 | inactive: 30.1%
COc1ccc(/C=C/C(=O)NC2CCCCCCC2)cc1S(=O)(=O)N1CCOCC1 | inconclusive: -63.8%
N#Cc1c2c(c(Nc3ccccc3)n3c1nc1ccccc13)CCC2 | inconclusive: -73.5%

A run of entries from the list above:
Compound | activity change (PNC), negative = inhibition
Cc1noc(C)c1S(=O)(=O)N1CCC(C(=O)N2CCN(c3ccc(Cl)cc3)CC2)CC1 | inconclusive: -75.8%
COc1ccc(C(=O)NC2CCN(CC(=O)Nc3cccc(C)c3)CC2)cc1OC | inconclusive: -43%
S=c1[nH]nc(-c2cc3c(s2)-c2ccccc2CC3)o1 | inconclusive: -32.7%
COc1ccc(-c2noc(-c3cccc(OC)c3OC)n2)cc1OC | inactive: 7.54%
O=C(O)c1cccc(NC(=O)C2C3C=CC(C3)C2C(=O)OCC(F)(F)C(F)F)c1 (stereo not given) | inconclusive: -67%
CCSc1nnc(-c2cnn(-c3ccccc3)c2-n2cccc2)n1C | inconclusive: -60.4%
CCCNC(=O)c1ccccc1NC(=O)c1ccccc1N(C)S(=O)(=O)c1ccc(C)cc1 | inconclusive: -48.2%
COC(=O)Cn1c(=O)sc2ccccc21 | inconclusive: -57.6%
c1ccc(C(c2c[nH]c3ccccc23)c2c[nH]c3ccccc23)nc1 | inactive: 29.8%
O=C(CCSCCC(=O)NCc1cccs1)NCc1cccs1 | inconclusive: -32.9%
O=C(CCC(=O)c1cccs1)OCc1nc2ccccc2s1 | inconclusive: -30.8%
COc1cc(C2C(C#N)=C(N)Oc3n[nH]c(-c4ccccn4)c32)cc(OC)c1OC (stereo not given) | inconclusive: -59%
O=C(Nc1cc(C(=O)N2CCCC2)ccc1N1CCCC1)c1ccccc1 | active: -111%
CCOC(=O)c1ccc(Nc2nc(-c3cccnc3)nc3ccccc23)cc1 | inactive: 88%
CCC(Cc1ccccc1)NC(=O)C1CCC(CNc2c(N3CCCC3)c(=O)c2=O)CC1 (stereo not given) | inactive: -29.9%
O=c1[nH]c2ccc(Br)cc2c(-c2ccccc2)c1CN1CCOCC1 | active: -90.2%
O=C(Nc1nc2ccccc2s1)C1=NN(c2ccccc2)C(=O)CC1 | inconclusive: -35.8%
Cc1oc2cc(O)cc(C)c2c(=O)c1-c1cnn(-c2ccccc2)c1 | active: -115%
COCc1nnc(NC(=O)c2cc(Cl)ccc2OC)s1 | inactive: 34.8%
O=C(Cn1nc(C(F)(F)F)c2c1CCCCC2)N1CCOCC1 | inconclusive: -33.2%
CC(C)Cc1nnc(NC(=O)c2ccc([N+](=O)[O-])cc2)s1 | inconclusive: -33.3%
Cc1nnc(SCc2ccccc2F)n1NCc1cccs1 | inconclusive: -37.4%
Cc1cc(NC(=O)c2ccccc2F)n(-c2nc3ccccc3[nH]2)n1 | inactive: 30.1%
COc1ccc(/C=C/C(=O)NC2CCCCCCC2)cc1S(=O)(=O)N1CCOCC1 | inconclusive: -63.8%

(listing goes on)

Compound | activity change (PNC), negative = inhibition
COc1ccc2nc(NC(=O)Cn3cnc4c(=O)n(C)c(=O)n(C)c43)sc2c1 | inconclusive: -53.5%
CC(C)c1ccc(NC(=O)CSc2ncccc2C(=O)Oc2cccc([N+](=O)[O-])c2)cc1 | inactive: 9.16%
Cn1c(=N)c(S(=O)(=O)c2ccc(F)cc2)cc2c(=O)n3ccccc3nc21 | inactive: -11.9%
CC(=O)Nc1cccc(S(=O)(=O)N2CCCCCC2)c1 | inconclusive: -30.3%
CC(C)NC(=O)C1CCCN(S(C)(=O)=O)C1 (stereo not given) | inactive: 31.5%
CCN(CC)S(=O)(=O)c1cccc(-c2n[nH]c(=S)n2/N=C/c2ccc(C(=O)OC)cc2)c1 | inconclusive: -59.9%
Cc1cccc(Nc2nnc(-c3ccc(N4CCOCC4)c([N+](=O)[O-])c3)c3ccccc23)c1 | inconclusive: -30.8%
CCc1ccc2[nH]c(=O)c(CN(Cc3ccco3)S(=O)(=O)c3ccc4c(c3)OCCO4)cc2c1 | inactive: 28.8%
CC(OC(=O)c1nsc(Cl)c1Cl)C(=O)NCc1ccco1 (stereo not given) | inactive: -7.81%
COc1ccc2c(c1)CCCC21NC(=O)NC1=O (stereo not given) | inconclusive: -45%
Cc1oc(-c2ccccc2)cc1C(=O)Nc1ccccc1 | inconclusive: -56.4%
Cc1cc(C)n2ncc(C(=O)NCCc3ccccc3)c2n1 | inactive: 8.44%
COc1ccc(C2=CC(c3ccc(OC)c(OC)c3)NC(=S)N2)cc1 (stereo not given) | inconclusive: -46.8%
CC(=O)c1ccc(NC(=O)c2cnn3ccccc23)cc1 | inconclusive: -55.1%
COc1ccc(Nc2nnc(SCC(=O)c3cc(C)n(CC4CCCO4)c3C)s2)cc1 (stereo not given) | inactive: 23.3%
Nc1nc(SCC(=O)NCc2ccccc2Cl)[nH]c(=O)c1NC(=O)c1ccccc1F | inconclusive: -32.8%
COC(=O)c1c(C)n(-c2ccc(C)cc2)c2ccc(O)cc12 | inactive: -6.01%
CCOC(=O)c1oc2c(C)c(O)ccc2c(=O)c1-c1nncn1-c1ccccc1 | inactive: -1.74%
CCOC(=O)c1c(N)nn(C(=O)CC)c1-c1ccccc1 | active: -100%
Cc1cccc(C(=O)N2CCC(n3nnc4cc(F)ccc43)CC2)c1 | inconclusive: -38.8%
N#CC1(C#N)C(c2ccccc2)OC23CCCCCC2C1(C#N)C(=N)O3 (stereo not given) | inconclusive: -49.4%
COc1ccc(-c2cc(C(=O)N3CCCc4ccccc43)no2)cc1 | inactive: -13.2%
COc1ccc(Cl)cc1S(=O)(=O)N1CCCC1 | inconclusive: -75.5%

Compound | activity change (PNC), negative = inhibition
O=C(CSc1ccc(Cl)cc1)Nc1ccccc1N1CCN(C(=O)c2ccccc2)CC1 | inactive: -9.68%
O=c1cc(-c2ccc([N+](=O)[O-])cc2)nc2cc(-c3ccc(F)cc3)[nH]n12 | inconclusive: -40.7%
O=S1(=O)CCN(Cc2ccc(Cl)c(Cl)c2)CC1 | inactive: 9.82%
COc1cc2c(cc1NC(=O)C(C)Sc1ccc(C)cc1)oc1ccccc12 (stereo not given) | inconclusive: -52.6%
CC(NC(=O)Cn1cnnn1)C12CC3CC(CC(C3)C1)C2 (stereo not given) | inconclusive: -32.3%
O=C(OCC(=O)c1c[nH]c2ccccc12)C1=COCCO1 | inconclusive: -46.7%
CCOCC(=O)Nc1cc(-c2cn3cccnc3n2)ccc1C | inconclusive: -30.5%
CCOC(=O)COn1c(=O)c(=O)n(OC)c2ccccc21 | inconclusive: -31.5%
Cc1cc(C(F)(F)F)nn1CC(=O)NCc1ccccc1 | inactive: 1.02%
Cc1cccc(C(=O)NNC(=O)c2ccc(-c3ccccc3)cc2)c1 | inconclusive: -32.4%
COC(=O)/C=c1/s/c(=C(/C#N)C(=O)N2CCCCC2)n(-c2ccccc2)c1=O | inconclusive: -33.7%
Cc1ccc(C(=O)CSc2nnc(-c3ccco3)o2)o1 | inconclusive: -58.7%
O=[N+]([O-])c1cc(-c2n[nH]c(-c3ccccc3)n2)cc([N+](=O)[O-])c1 | inconclusive: -30.4%
COc1ccccc1-n1c(SCC(=O)N2CCCC2)nc2cccnc21 | active: -110%
COC(=O)C(NC(=O)c1ccc(C)cc1)(Nc1cccc(C)n1)C(F)(F)F (stereo not given) | active: -100%
COc1ccc(C(=O)N2CCCC2)cc1 | inactive: -28.7%
NC(=O)Nc1ccccc1C(=O)NCCc1ccccc1 | inconclusive: -54.5%
Fc1ccc2[nH]c3c(NCCN4CCOCC4)ncnc3c2c1 | inconclusive: -41.7%
COCCCNC(=O)CCn1c(=O)c2ccccc2n(CC(=O)Nc2ccccc2C)c1=O | inconclusive: -44.9%
CCCN(CC1CC1)C(=S)Nc1ccc(Oc2ccccc2)cc1 | inconclusive: -76.7%
Cc1ccc(/C=N/NC(=O)c2sccc2OCc2ccc(F)cc2)cc1 | inconclusive: -42.9%
